Measured values: ChEMBL document CHEMBL4513151, “CO-ADD screening of Institut Català d'Investigació Química (Spain) compounds”
Where “and” joins values, the source holds several entries; their conditions need not be identical. Equal entries are not always repeated. This is one part of the list. Results with a measured potency or affinity are listed apart.

Tested on: Acinetobacter baumannii
Conditions: Concentration 32 ug.mL-1, ASSAY_TEST Inhibition of Bacterial Growth, detection method Absorption (OD600), MEDIA CAMHB, plate type 384well, NBS, CORNING #3640, time 18 hr

| SMILES | Inhibition [%] | Inhibition (32 ug/mL) |
| --- | --- | --- |
| C=C1CC(C(=O)OC)(C(=O)OC)C[C@@H]1[C@H](c1ccccc1)n1ccc2ccccc21 | 7.23 | – |
| C[C@]12CC[C@@](c3ccccc3)(O1)[C@H]1C=C[C@H](OC(=O)c3ccccc3)[C@H]12 | – | 4.56% and -1.84% |
| C[C@]12CC[C@@](C3CCCC3)(O1)[C@H]1C=C[C@H](OC(=O)c3ccccc3)[C@H]12 | 5.62 | – |
| C[C@@H]1CC(=O)C=C2C(=O)[C@@H]3[C@@H](C3(C)C)[C@]21C | 9.25 | – |
| C[C@]12CC[C@@](c3ccc4ccccc4c3)(O1)[C@H]1C=C[C@H](OC(=O)c3ccccc3)[C@H]12 | -6.23 | – |
| C[C@]12CC[C@@](C3CC3)(O1)[C@H]1C=C[C@H](OC(=O)c3ccccc3)[C@H]12 | – | 2.05% and -3.29% |
| C=C1CC(COC)(COC)C[C@@H]1[C@@H](Nc1ccc(Br)cc1)c1ccccc1 | -7.79 | – |
| C=C1CC2(COC(C)(C)OC2)C[C@@H]1[C@@H](Nc1ccc(Br)cc1)c1ccccc1 | 4.44 | – |
| C=C1CC(COCc2ccc(OC)cc2)(COCc2ccc(OC)cc2)C[C@@H]1[C@@H](Nc1ccc(Br)cc1)c1ccccc1 | -2.79 | – |
| C[C@]12CC[C@@H](O1)[C@H]1C=C[C@H](OC(=O)c3ccccc3)[C@H]12 | 9.79 | – |
| C=C1CC(C(=O)OC)(C(=O)OC)C[C@@H]1[C@@H](NS(=O)(=O)c1ccc(C)cc1)c1ccccc1 | 5.82 | – |
| C[C@]12CC[C@@](c3ccc(C(F)(F)F)cc3)(O1)[C@H]1C=C[C@H](OC(=O)c3ccccc3)[C@H]12 | – | 1.01% and 0.68% |
| C[C@]12CC[C@@](C)(O1)[C@H]1C=C[C@H](OC(=O)c3ccccc3)[C@H]12 | 3.33 | – |
| C=C1CC(C(=O)OC)(C(=O)OC)C[C@@H]1[C@H](c1ccccc1)n1ccc2ccc(Cl)cc21 | -2.01 | – |

As a short view, two of the compounds above:

| SMILES | Inhibition [%] | Inhibition (32 ug/mL) |
| --- | --- | --- |
| C=C1CC(C(=O)OC)(C(=O)OC)C[C@@H]1[C@@H](NS(=O)(=O)c1ccc(C)cc1)c1ccccc1 | 5.82 | – |
| C[C@]12CC[C@@](c3ccc(C(F)(F)F)cc3)(O1)[C@H]1C=C[C@H](OC(=O)c3ccccc3)[C@H]12 | – | 1.01% and 0.68% |
